Test results as given in paper doi:10.1101/2024.06.17.598829 (bioRxiv, 2024).
Residue numbers refer to the chain shown, from its start. Results are given in words; binding and its absence hold for the method and conditions named. In cells and extracts the contact can be indirect. Some results given as binding are weak or reduced against the parent protein; the word gives no strength. Where a sequence is shown, tags or fusion partners need not be part of it.

Key:
Experiment in all cases: co-IP
[1] = target: T1, ROOT PHOTOTROPISM 2 (RPT2), RFP-tagged (Arabidopsis thaliana) (UniProt Q682S0)
T1 sequence: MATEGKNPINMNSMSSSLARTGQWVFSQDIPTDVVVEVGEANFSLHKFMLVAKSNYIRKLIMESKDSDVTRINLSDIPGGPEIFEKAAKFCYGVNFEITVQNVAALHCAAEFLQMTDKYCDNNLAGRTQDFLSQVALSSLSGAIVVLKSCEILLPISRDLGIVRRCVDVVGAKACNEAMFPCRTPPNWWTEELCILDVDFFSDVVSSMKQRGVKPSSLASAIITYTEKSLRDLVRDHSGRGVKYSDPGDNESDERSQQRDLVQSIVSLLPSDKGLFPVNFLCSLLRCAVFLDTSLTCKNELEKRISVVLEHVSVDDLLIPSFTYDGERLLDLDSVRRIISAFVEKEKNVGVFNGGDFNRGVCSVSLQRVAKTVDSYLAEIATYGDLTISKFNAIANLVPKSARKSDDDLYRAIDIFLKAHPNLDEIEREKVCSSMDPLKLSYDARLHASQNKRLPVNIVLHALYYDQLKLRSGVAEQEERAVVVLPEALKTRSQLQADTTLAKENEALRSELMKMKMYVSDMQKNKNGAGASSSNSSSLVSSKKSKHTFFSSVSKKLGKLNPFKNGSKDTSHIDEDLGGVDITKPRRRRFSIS

[2] = target: T2, NPH3_S744A (Arabidopsis thaliana) (UniProt Q9FMF5)
T2 sequence: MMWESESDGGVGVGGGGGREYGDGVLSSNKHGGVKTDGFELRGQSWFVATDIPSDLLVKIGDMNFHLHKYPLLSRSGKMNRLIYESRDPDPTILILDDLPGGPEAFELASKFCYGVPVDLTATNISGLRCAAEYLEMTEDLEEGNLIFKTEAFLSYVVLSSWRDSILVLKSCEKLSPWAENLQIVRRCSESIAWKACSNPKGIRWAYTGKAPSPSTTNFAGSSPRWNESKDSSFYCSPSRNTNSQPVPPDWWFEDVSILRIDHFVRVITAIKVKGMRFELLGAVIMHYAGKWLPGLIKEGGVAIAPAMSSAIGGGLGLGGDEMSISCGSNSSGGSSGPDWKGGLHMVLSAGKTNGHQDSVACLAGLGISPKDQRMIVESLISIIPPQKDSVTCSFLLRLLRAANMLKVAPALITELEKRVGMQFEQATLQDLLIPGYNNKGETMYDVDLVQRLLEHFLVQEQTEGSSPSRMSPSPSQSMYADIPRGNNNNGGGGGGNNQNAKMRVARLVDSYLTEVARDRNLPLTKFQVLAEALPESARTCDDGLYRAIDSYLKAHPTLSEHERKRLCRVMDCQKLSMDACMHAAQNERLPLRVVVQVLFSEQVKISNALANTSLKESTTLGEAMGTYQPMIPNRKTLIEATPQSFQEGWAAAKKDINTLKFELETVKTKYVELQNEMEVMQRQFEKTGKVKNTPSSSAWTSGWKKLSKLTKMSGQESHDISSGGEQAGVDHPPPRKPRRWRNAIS

[3] = target: T3, NON-PHOTOTROPIC HYPOCOTYL 3 (NPH3), fluorophore-tagged, expressed in N. benthamiana (Arabidopsis thaliana) (UniProt Q9FMF5)
T3 sequence: T2 sequence with A744S

Measured: binding

B1: NON-PHOTOTROPIC HYPOCOTYL 3 (NPH3), fluorophore-tagged, expressed in N. benthamiana (protein, UniProt Q9FMF5 1-746)
chain: T2 sequence with A744S
binds: all assays above
